This experiment deals with MINK1 as used in the co-IP validation of Fig. 4E. Briefly: co-IP; HEK293T cells; lysis in 10 mM Tris-HCl, 150 mM NaCl, 1% NP-40, 1% Triton X-100, 1 mM DTT, pH 7.5; anti-FLAG M2 or anti-HA magnetic beads overnight at 4 C; washes up to 500 mM NaCl; western blots.

Drawing on paper PMC10766628, this text covers binding for one molecule.

Results are given in words; binding and its absence hold for the method and conditions named. Binding seen in cells or lysates may run through a third protein. Binding can be weak; no strength is given.

B1: CRYAB (protein, UniProt P02511 1-175)
chain: MDIAIHHPWIRRPFFPFHSPSRLFDQFFGEHLLESDLFPTSTSLSPFYLRPPSFLRAPSWFDTGLSEMRLEKDRFSVNLDVKHFSPEELKVKVLGDVIEVHGKHEERQDEHGFISREFHRKYRIPADVDPLTITSSLSSDGVLTVNGPRKQVSGPERTIPITREEKPAVTAAPKK
Turning to B1, the binding entry is reported as “binds weakly”.
